Laboratory results as given in the supplement of paper PMC4749390.
Structures can show the parent of a compound that is named as a salt. The list shows a part of the results. Single values are uncertain here, since repeats match poorly.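 Wild-type human LRH-1, a heavily sumoylated nuclear receptor, is tetracycline-inducible in stable JEG3 cells. RT-qPCR measured SUMO-sensitive APOC3 and MUC1 transcripts, which rise with SUMO-less LRH-1 or UBC9 knockdown, versus TBP and DMSO controls. Robust Z-scores beyond ±2 flagged primary hits, followed by toxicity and TBP filtering.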

Tested on: JEG3 expressing hLRH-1
Test: MUC1 transcript change (ddCt vs TBP and DMSO), Z-score over library; higher = higher MUC1 expression
Settings: 10 µM; time (hr): 24

Compound	MUC1 transcript change (Z-score)
CC(=O)OCC(=O)[C@@]1(O)CCC2C3CCC4=CC(=O)CC[C@]4(C)C3C(=O)C[C@@]21C (some centres undefined) [cortisone acetate]	0.324
Clc1ccc(CO/N=C(\Cn2ccnc2)c2ccc(Cl)cc2Cl)c(Cl)c1 [oxiconazole nitrate]	0.0443
FC(F)(Cl)C(F)(F)Cl [cryoflurane]	0.279
N=C(N)c1ccc(OCCCCCOc2ccc(C(=N)N)cc2)cc1 [Pentamidine isethionate]	-0.706
CCC(=O)c1c(O)cc(O)cc1O [flopropione]	0.76
CCOC(=O)n1ccn(C)c1=S [carbimazole]	0.143
NC1CCN(c2c(F)cc3c(=O)c(C(=O)O)cn(C4CC4)c3c2Cl)C1 (centres undefined) [clinafoxacin hydrochloride]	0.373
CO/N=C(\C(=O)N[C@@H]1C(=O)N2C(C(=O)O)=C(COC(N)=O)CS[C@H]12)c1ccco1 [cefuroxime sodium]	0.592
CN(C)CC/C=C1/c2ccccc2COc2ccccc21 [doxepin hydrochloride]	-0.0122
CCCCCCCCCCCCCCCC(=O)O[C@@H]1[C@@H](O)[C@@H](O)[C@@H]([C@H](NC(=O)[C@@H]2C[C@@H](CCC)CN2C)[C@H](C)Cl)O[C@@H]1SC [clindamycin palmitate hydrochloride]	0.619
Clc1ccc(COC(Cn2ccnc2)c2ccc(Cl)cc2Cl)c(Cl)c1 (centres undefined) [miconazole nitrate]	0.364
N[C@@H](C(=O)N[C@@H]1C(=O)N2C(C(=O)O)=C(Cl)CS[C@H]12)c1ccccc1 [cefaclor]	-0.0783
CC(C)Cn1cnc2c(N)nc3ccccc3c21 [imiquimod]	-0.243
O=C(CNC(=O)c1ccc(Cl)cc1)NO [benurestat]	-0.802
Nc1nc(O)ncc1F [flucytosine]	1.06
CC(=O)OC1CC2CCC1(C)C2(C)C (centres undefined) [bornyl acetate]	-0.0806
COc1ccccc1N1CCN(CC(O)COc2cccc3ccccc23)CC1 (centres undefined) [Naftopidil dihydrochloride]	0.923
CC(NCCc1ccc(O)cc1)C(O)c1ccc(O)cc1 (centres undefined) [ritodrine hydrochloride]	0.34
CN1CCC(=C2c3ccccc3CC(=O)c3sccc32)CC1 [ketotifen fumarate]	0.793
Cc1nc2n(c(=O)c1CCN1CCC(c3noc4cc(F)ccc34)CC1)CCC[C@H]2O [paliperidone]	-0.749
CC(C)NCC(O)c1ccc2ccccc2c1 (centres undefined) [pronetalol hydrochloride]	-0.28
C/C(=C\C(=O)OCCCCCCCCC(=O)O)C[C@@H]1OC[C@H](C[C@@H]2O[C@H]2[C@@H](C)[C@H](C)O)[C@@H](O)[C@H]1O [mupirocin]	0.708
Cc1ccc(O)cc1 [cresol]	0.176
CCOC(=O)C1=C[C@]2(CC)CCCN3CCc4c(n1c1ccccc41)[C@@H]32 [vinpocetine]	0.641
CCCN(CCC)S(=O)(=O)c1ccc(C(=O)O)cc1 [probenecid]	0.274
NS(=O)(=O)c1ccc(C(=O)O)cc1 [carzenide]	-0.297
C[C@H]1C[C@@H]2[C@H]([C@@H](O)C[C@@]3(C)[C@H]2CC[C@]3(O)C(=O)CO)[C@@]2(C)C=CC(=O)C=C12 [methylprednisolone]	-0.93

Already shown: two of the compounds above.
Compound	MUC1 transcript change (Z-score)
NS(=O)(=O)c1ccc(C(=O)O)cc1 [carzenide]	-0.297
C[C@H]1C[C@@H]2[C@H]([C@@H](O)C[C@@]3(C)[C@H]2CC[C@]3(O)C(=O)CO)[C@@]2(C)C=CC(=O)C=C12 [methylprednisolone]	-0.93

Later entries

Compound	MUC1 transcript change (Z-score)
CN(C(=O)C(Cl)Cl)c1ccc(OC(=O)c2ccco2)cc1 [diloxanide furoate]	-0.422
CC(=O)OCC(=O)[C@@]1(O)[C@H](C)CC2C3CCC4=CC(=O)C=C[C@]4(C)[C@@]3(F)[C@@H](O)C[C@@]21C (some centres undefined) [dexamethasone acetate]	-0.938
O=C1CN(/N=C/c2ccc([N+](=O)[O-])o2)C(=O)N1 [nitrofurantoin]	-0.165
O=C(O)COCCN1CCN(C(c2ccccc2)c2ccc(Cl)cc2)CC1 (centres undefined) [cetirizine hydrochloride]	0.744
Cc1c(-c2cnccn2)ssc1=S [oltipraz]	0.254
CCC(=O)O[C@]1(C(=O)CCl)[C@@H](C)C[C@H]2[C@@H]3CCC4=CC(=O)C=C[C@]4(C)[C@@]3(F)[C@@H](O)C[C@@]21C [clobetasol propionate]	-0.127
NNc1nncc2ccccc12 [hydralazine hydrochloride]	-0.356
NCC(O)CC(=O)O (centres undefined) [aminohydroxybutyric acid]	0.144
O=C(O)CSCC(=O)NC1CCSC1=O (centres undefined) [erdosteine]	0.828
C1CNCCN1 [piperazine]	-0.318
CCN(CC)CC#CCOC(=O)C(O)(c1ccccc1)C1CCCCC1 (centres undefined) [oxybutynin chloride]	-0.297
C[C@@H]1O[C@@H](OC[C@H]2OC(Oc3c(-c4ccc(O)c(O)c4)oc4cc(O)cc(O)c4c3=O)[C@H](O)[C@@H](O)[C@@H]2O)[C@H](O)[C@H](O)[C@H]1O (some centres undefined) [rutin]	0.016
Cc1cc(=O)n(-c2ccccc2)n1C [antipyrine]	0.386
CC(C)c1ccc2oc3nc(N)c(C(=O)O)cc3c(=O)c2c1 [amlexanox]	0.375
CCc1oc2ccccc2c1C(=O)c1cc(Br)c(O)c(Br)c1 [benzbromarone]	0.861
Cc1nc2n(c(=O)c1CCN1CCC(c3noc4cc(F)ccc34)CC1)CCCC2 [Risperidone]	-4.72
CCC(=O)NCC[C@@H]1CCc2ccc3c(c21)CCO3 [ramelteon]	0.132
CC(=O)Oc1cccc2c1C(=O)c1c(OC(C)=O)cc(C(=O)O)cc1C2=O [diacerin]	-0.551
Clc1cccc(Cl)c1NC1=NCCN1 [Clonidine hydrochloride]	0.153
CC1=C(C)C(=O)C(C(CCCCCC(=O)O)c2ccccc2)=C(C)C1=O (centres undefined) [seratrodast]	0.463
CN(C)CCOC(C)(c1ccccc1)c1ccccn1 (centres undefined) [doxylamine succinate]	0.0536
CC(C)COCC(CN(Cc1ccccc1)c1ccccc1)N1CCCC1 (centres undefined) [Bepridil hydrochloride]	0.0567
CC(=O)Nc1ncc([N+](=O)[O-])s1 [nithiamide]	0.94
CN(C)CCCOc1nn(Cc2ccccc2)c2ccccc12 [benzydamine hydrochloride]	-1.38
C[n+]1cc2c3c(ccc2c2ccc4cc5c(cc4c21)OCO5)OCO3 [Sanguinarine chloride]	0.47
CN(C)CCc1c[nH]c2ccc(Cn3cncn3)cc12 [rizatriptan benzoate]	0.311
CO[C@@]1(NC(=O)Cc2cccs2)C(=O)N2C(C(=O)O)=C(COC(N)=O)CS[C@@H]21 [cefoxitin sodium]	-0.288

Compound	MUC1 transcript change (Z-score)
CC1(C)OC(=O)NC1=O [dimethadione]	-0.289
C=C[C@H]1CN2CC[C@H]1C[C@@H]2[C@H](O)c1ccnc2ccc(OC)cc12 [quinine sulfate]	0.173
COc1ccc(NS(=O)(=O)c2ccc(N)cc2)nn1 [sulfamethoxypyridazine]	0.263
O=C(CCBr)N1CCN(C(=O)CCBr)CC1 [pipobroman]	0.428
Cc1ccc(S(=O)(=O)NC(=O)NN2CC3CCCC3C2)cc1 (centres undefined) [gliclazide]	-0.0549
Cc1ncc(CSSCc2cnc(C)c(O)c2CO)c(CO)c1O [pyritinol]	-0.471
CC(C(=O)O)c1ccc(N2Cc3ccccc3C2=O)cc1 (centres undefined) [indoprofen]	0.243
C=C1C[C@H]2[C@@H]3C=C(C)C4=CC(=O)CC[C@]4(C)[C@H]3CC[C@]2(C)[C@@]1(OC(C)=O)C(C)=O [melengestrol acetate]	0.0525
O=C(O)CCCc1ccccc1 [phenylbutyric acid]	1.17
CC1=CC(=O)NS(=O)(=O)O1 [acesulfame potassium]	0.701
CCCC(=O)Nc1ncnc2c1ncn2[C@@H]1O[C@@H]2COP(=O)(O)O[C@H]2[C@H]1OC(=O)CCC [bucladesine]	0.319
CCOc1cc(CC(=O)N[C@@H](CC(C)C)c2ccccc2N2CCCCC2)ccc1C(=O)O [repaglinide]	-0.173
CN(C)C(=N)N=C(N)N [metformin hydrochloride]	0.409
CN[C@@H]1C(OC2[C@H](O[C@H]3[C@H](O)[C@@H](O)[C@H](N=C(N)N)[C@@H](O)[C@@H]3N=C(N)N)OC(C)[C@]2(O)CO)OC(CO)C(O)C1O (some centres undefined) [dihydrostreptomycin sulfate]	0.366
O=C1C(O)=C(O)O[C@@H]1C(O)CO (some centres undefined) [ascorbic acid]	0.467
CC(=O)Oc1cccc(O)c1 [resorcinol monoacetate]	-0.58
CCN1CCN(C(=O)N[C@@H](C(=O)N[C@@H]2C(=O)N3[C@@H]2SC(C)(C)[C@@H]3C(=O)O)c2ccccc2)C(=O)C1=O [piperacillin sodium]	0.511
Cc1ncc([N+](=O)[O-])n1CCO [metronidazole]	-0.236
Nc1ccc(S(=O)(=O)O)cc1 [sulfanilate zinc]	1.1
O=C(Oc1ccccc1C(=O)O)c1ccccc1O [salsalate]	0.0339
CC(=O)OC/C=C(C)/C=C/C=C(C)/C=C/C1=C(C)CCCC1(C)C [retinyl acetate]	0.273
C[N+](C)(C)CCOC(N)=O [Carbachol]	0.897
O=c1[nH]c(=O)n([C@H]2C[C@H](O)C(CO)O2)cc1I (some centres undefined) [idoxuridine]	3.85
CCOC(=O)[C@H](CCc1ccccc1)N[C@@H](C)C(=O)N1CCC[C@H]1C(=O)O [enalapril maleate]	0.305
C=CC[C@@H]1/C=C(\C)C[C@H](C)C[C@H](OC)[C@H]2O[C@@](O)(C(=O)C(=O)N3CCCC[C@H]3C(=O)O[C@H](/C(C)=C/[C@@H]3CC[C@@H](O)[C@H](OC)C3)[C@H](C)[C@@H](O)CC1=O)[C@H](C)C[C@@H]2OC [tacrolimus]	0.759

Looked up one by one from the list above, 3 records:
Compound	MUC1 transcript change (Z-score)
CC(C(=O)O)c1ccc(N2Cc3ccccc3C2=O)cc1 (centres undefined) [indoprofen]	0.243
CCOc1cc(CC(=O)N[C@@H](CC(C)C)c2ccccc2N2CCCCC2)ccc1C(=O)O [repaglinide]	-0.173
O=C(Oc1ccccc1C(=O)O)c1ccccc1O [salsalate]	0.0339
